# Library compounds against nucleic acid targets

Source: the ROBIN nucleic acid binder screens (doi:10.1002/anie.202211358).

Oligonucleotides screened, 5′ to 3′:
T1: TPP riboswitch RNA three-way junction, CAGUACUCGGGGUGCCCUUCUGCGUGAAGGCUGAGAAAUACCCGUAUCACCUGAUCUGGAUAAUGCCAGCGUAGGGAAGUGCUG. Hit rate about 0.7% of about 24,000 compounds.
T2: SAM-II riboswitch RNA pseudoknot, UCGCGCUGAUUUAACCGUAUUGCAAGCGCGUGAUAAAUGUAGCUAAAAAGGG. Hit rate about 1% of about 21,000 compounds.
T3: PreQ1 riboswitch RNA pseudoknot, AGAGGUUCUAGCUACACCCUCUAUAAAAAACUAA. From B. subtilis. Hit rate about 0.7% of about 24,000 compounds.

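Each compound is printed as two spots on a slide made to bind it covalently, so it has no test concentration; the read-out is fluorescence of the bound, labelled oligonucleotide. The data file lists only calls. An earlier report of the laboratory on the PreQ1, TPP and SAM-II riboswitches (doi:10.1038/s41467-019-09493-3) used 1 µM RNA for 2 h and required a mean Z-score above 3 (spot signal-to-noise against the whole library), a score well above that on a control array, and duplicate spots agreeing (coefficient of variation under 100); it then also set aside compounds that hit other targets, which this list keeps. The cut-offs behind this list may differ. These are primary screening calls, not affinities; a compound without a hit may have attached poorly or may still bind in solution.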 A compound is marked yes if it was called a hit and no if it was screened but was not. Compounds were drawn at random from those tested, without regard to their results. A dash means that no call is listed here.

compound,T1,T2,T3
COc1ccc(S(=O)(=O)[C@H]2CS(=O)(=O)C[C@@H]2NCc2cccc(C)c2)cc1,no,-,no
COc1ccc(C2N=C(N3CCc4ccccc43)SC(N)=C2C#N)cc1 (stereo unspecified),no,no,no
Cn1c(C2CCCN2C(=O)c2cn(CCN)nn2)nc2ccccc21 (stereo unspecified),no,no,no
O=C(C[C@@H]1C/C=C\CCC(=O)O[C@H](c2ccccc2)CNC1=O)NCc1ccc(Cl)cc1,no,no,no
COc1c(Cl)cc(Cl)cc1-c1ncnn1CCO,no,no,no
S=C1NC2(CCCCC2)NC12CCCCC2,no,no,no
Cc1ccc2c(c1)C1OCCCC1C(c1cccs1)N2 (stereo unspecified),no,no,no
Nc1cc(-c2nc3ccccc3s2)ccc1Br,no,no,no
O=C(CCc1ccccc1Cl)N1C[C@@H](CN2CCCCC2)[C@@H](CO)C1,no,no,no
COc1ccc(C(=O)N2CCN(C(=O)c3nonc3N)CC2)cc1,no,-,no
O=C1C(Br)=Cc2cccc3cccc1c23,no,no,no
CCOC(=O)c1c(N)n(-c2ccc(C(C)=O)cc2)c2nc3ccccc3nc12,no,no,no
Oc1cccc2nc3ccccc3nc12,no,no,no
O=C1CCC2(CCCN(C(=O)c3ccc(CO)o3)C2)CN1Cc1ccncc1 (stereo unspecified),no,no,no
Nc1cc(N2CCCC(CO)(Cc3ccccc3F)C2)nc(N)n1 (stereo unspecified),no,no,no
CCOc1nc(NCCC2=CCCCC2)nc(OCC)n1,no,no,no
C[C@]12CC[C@H]3[C@@H](CCC4=CC(=O)CC[C@@]43C)[C@H]1CC[C@H]2O,no,no,no
CCC(O)c1nc2ccccc2n1CCOc1cccc(C)c1C (stereo unspecified),no,-,no
COc1ccc(CNc2ccc(N3CCOCC3)c(C(=O)O)c2)cc1,no,no,no
Nc1n[nH]c(C(=O)N2CCCC(COc3cccc(F)c3)C2)n1 (stereo unspecified),no,no,no
O[C@@H]1C[C@H](O)C12CCN(Cc1cccc(OCCN3CCOCC3)c1)CC2,no,no,no
CCNc1nc(N2CCCC2)nc(-n2cnc(SCc3ccccc3)n2)n1,no,-,no
N=c1n(Cc2ccccc2)c2ccccc2n1CC(O)c1cccs1 (stereo unspecified),no,no,no
OC[C@H]1CCN(c2ncccc2Cl)C[C@@H]1O,no,no,no
COc1cc(C(=O)N2CCC(N3CCN(C)CC3)CC2)ccc1Nc1ncc2c(n1)N(C)c1ccccc1C(=O)N2C,no,no,no
COc1ccc2[nH]cc(CCNC3CCOC4(CCOCC4)C3)c2c1 (stereo unspecified),no,no,no
COC[C@@H](N)C(=O)N1CCC(Oc2ccccc2OC)CC1,no,no,no
O=C(CN(Cc1ccccc1)S(=O)(=O)c1ccc(Br)cc1)NCCO,no,no,no
Cc1ccccc1OCC(O)CNc1ccccn1 (stereo unspecified),no,no,no
CCOC(=O)c1nc(Nc2cccc(C)c2C)c2ccccc2n1,no,no,no
Cc1ccc(NC(=O)N2CCN(C)CC2)cc1NC(=O)N1CCN(C)CC1,no,no,no
Nc1nonc1C(=O)N1CCN(C(=O)Nc2cccc(Cl)c2)CC1,no,-,no
C[C@H]1CC[C@@]2(C)[C@@H](CC[C@@H]3[C@@H]2CC[C@]2(C)[C@@H](O)CC[C@@H]32)C1,no,no,no
Cc1nccn1CC1CCN(c2ncnc3c2CCNC3)CC1,no,no,no
Cc1ccc(-n2nc(CO)c(C(=O)NCc3ccccc3C)n2)cc1,no,-,no
N#Cc1c(N)nc2c(c1-c1cccn1-c1ncccn1)CCCC2,no,no,no
Cc1cccc(CCNc2c(-c3ccccc3)c(=O)c2=O)c1,no,-,no
c1cncc(-c2nc3c(c(N4CCc5ccccc5C4)n2)CCNC3)c1,yes,no,yes
CCOC(=O)c1nc(Nc2ccc(C(=O)OC(C)C)cc2)c2ccccc2n1,no,no,no
CC(C)(C)c1ccc(OCC(O)CN2CCOCC2)cc1 (stereo unspecified),no,no,no
COc1ccc(CCNCc2ccc(-c3ccccc3F)o2)cc1OC,no,-,no
COc1ccc(-c2noc(NCCCN3CCc4ccccc4C3)n2)cc1,no,-,no
O=C(NCC1(O)CCNC1)C1CCN(C(=O)c2ccccn2)CC1 (stereo unspecified),no,no,no
COc1cc(C(=O)N2C[C@H](CO)C[C@H](CN3CCCC3)C2)c2ccccc2n1,no,no,no
Cc1cc(Nc2ccncc2)n2ncc(-c3ccccc3)c2n1,no,-,no
CCc1ccc(NC(=O)c2nnn(CC(=O)Nc3ccccc3CC)c2N)cc1,no,no,no
CC(C)CNc1oc(-c2ccccc2)nc1S(=O)(=O)c1ccc(Cl)cc1,no,-,yes
Cn1c(=O)c2c(ncn2CCOC(=O)C(C)(C)Oc2ccc(Cl)cc2)n(C)c1=O,no,no,no
COc1ccc2c(c1)[C@@]13CCCCC1C(C2)N(C)CC3 (stereo partly specified),no,no,no
Cc1nn(CC(O)c2ccccc2)c(C)c1Br (stereo unspecified),no,no,no
CC(C)c1cc(NCc2ccccc2F)n2nc(-c3cccnc3)nc2n1,no,-,no
O=C(CN1CCN(C2CCNCC2)CC(O)C1)NCc1ccccc1 (stereo unspecified),no,no,no
OCCCNc1nc(N2CCOCC2)nc2ccccc12,no,no,no
CCCc1nc2nc(C)cc(Nc3ccccc3Cl)n2n1,no,no,no
Oc1ccc(Cc2ccccc2Cl)c(O)c1,no,no,no
CCCc1nc(-c2cc3cc(C)ccc3nc2NCc2ccc(OC)cc2)no1,no,-,no
COc1ccc(CN2C[C@@H](CN3CCN(C)CC3)[C@@H](CO)C2)c(C)c1C,no,no,no
O=C(Oc1cccc(NC2=NS(=O)(=O)c3ccccc32)c1)c1ccccc1,no,no,no
Cc1c(S(=O)(=O)c2ccccc2)c(N)n(CCN(C)C)c1C,no,no,no
CC1CC2(C)CC(C)C1(CO)CO2 (stereo unspecified),no,no,yes